Test [1] addresses T1, Checkpoint kinase 1, wild type, N-terminal Strep-HA tag (human), O14757.
T1 chain: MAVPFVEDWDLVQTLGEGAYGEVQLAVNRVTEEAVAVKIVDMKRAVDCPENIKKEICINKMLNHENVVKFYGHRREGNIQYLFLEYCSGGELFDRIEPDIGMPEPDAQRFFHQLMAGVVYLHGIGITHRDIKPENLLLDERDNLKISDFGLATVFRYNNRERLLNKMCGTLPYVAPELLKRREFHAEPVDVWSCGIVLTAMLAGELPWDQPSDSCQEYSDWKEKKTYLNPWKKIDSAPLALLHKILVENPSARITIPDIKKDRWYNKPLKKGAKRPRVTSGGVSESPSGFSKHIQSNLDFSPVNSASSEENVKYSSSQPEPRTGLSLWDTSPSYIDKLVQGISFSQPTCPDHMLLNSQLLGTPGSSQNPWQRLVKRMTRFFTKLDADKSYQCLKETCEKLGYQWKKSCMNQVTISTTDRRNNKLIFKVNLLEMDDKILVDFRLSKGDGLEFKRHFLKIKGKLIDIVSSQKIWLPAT
In words: affinity purification with mass spectrometry; N-terminal Strep-HA-tagged bait induced with doxycycline (24 h) in HEK293 cells; cells treated 4 h with 1 µM inhibitor (SGC-CAMKK2-1, SGC-CAMKK2-1N or rabusertib) or 0.01% DMSO; native lysis in HNN buffer (50 mM HEPES pH 8.0, 150 mM NaCl, 50 mM NaF) with 0.5% IGEPAL; StrepTactin Sepharose, biotin elution; interactors scored against EGFP pulldowns (modified D-score > …). The note with it: remark: other sources report otherwise.

Chains of the proteins cited; added tags and fusions are not shown.
UniProt Q96RR4: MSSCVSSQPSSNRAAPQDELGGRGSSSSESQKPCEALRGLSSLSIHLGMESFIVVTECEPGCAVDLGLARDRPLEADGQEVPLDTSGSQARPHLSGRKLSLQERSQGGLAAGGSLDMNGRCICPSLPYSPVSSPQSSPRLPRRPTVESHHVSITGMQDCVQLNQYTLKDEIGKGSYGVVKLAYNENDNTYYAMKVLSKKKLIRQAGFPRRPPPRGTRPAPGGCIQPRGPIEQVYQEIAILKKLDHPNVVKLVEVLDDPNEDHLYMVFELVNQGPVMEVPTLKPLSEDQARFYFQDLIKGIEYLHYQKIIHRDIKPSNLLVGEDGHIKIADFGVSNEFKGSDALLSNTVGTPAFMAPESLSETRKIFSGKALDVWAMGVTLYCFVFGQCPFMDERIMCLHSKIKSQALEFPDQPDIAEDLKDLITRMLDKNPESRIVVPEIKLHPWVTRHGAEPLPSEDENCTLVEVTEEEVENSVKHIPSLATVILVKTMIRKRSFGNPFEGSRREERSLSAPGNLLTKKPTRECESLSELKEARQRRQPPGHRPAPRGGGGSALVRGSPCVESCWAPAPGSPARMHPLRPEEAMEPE

The target in test [2] is T2, Checkpoint kinase 1, wild type, N-terminal Strep-HA tag (human) (UniProt O14757).
T2 sequence: T1 chain
The test can be described thus: affinity purification with mass spectrometry; N-terminal Strep-HA-tagged bait induced with doxycycline (24 h) in HEK293 cells; cells treated 4 h with 1 µM inhibitor (SGC-CAMKK2-1, SGC-CAMKK2-1N or rabusertib) or 0.01% DMSO; native lysis in HNN buffer (50 mM HEPES pH 8.0, 150 mM NaCl, 50 mM NaF) with 0.5% IGEPAL; StrepTactin Sepharose, biotin elution; interactors scored against EGFP pulldowns (modified D-score > 1.425).

The target of test [3] is Calcium/calmodulin-dependent protein kinase kinase 2, wild type, N-terminal Strep-HA tag (human) (UniProt Q96RR4). Described as above.

These are yes or no findings as the source states them, for the method shown. Binding seen in cells or lysates may run through a third protein. Here binding means that the protein was enriched with, or labelled near, the bait; the list need not be complete. Sequences can lack the tags named with a protein.

B1: 14-3-3 protein theta, P27348 1-245 (protein)
chain: MEKTELIQKAKLAEQAERYDDMATCMKAVTEQGAELSNEERNLLSVAYKNVVGGRRSAWRVISSIEQKTDTSDKKLQLIKDYREKVESELRSICTTVLELLDKYLIANATNPESKVFYLKMKGDYFRYLAEVACGDDRKQTIDNSQGAYQEAFDISKKEMQPTHPIRLGLALNFSVFYYEILNNPELACTLAKTAFDEAIAELDTLNEDSYKDSTLIMQLLRDNLTLWTSDSAGEECDAAEGAEN
Take B1: the binding entry in test [1] is given as “binds”.

B2: DNA replication licensing factor MCM5 (protein, UniProt P33992 1-734)
chain: MSGFDDPGIFYSDSFGGDAQADEGQARKSQLQRRFKEFLRQYRVGTDRTGFTFKYRDELKRHYNLGEYWIEVEMEDLASFDEDLADYLYKQPAEHLQLLEEAAKEVADEVTRPRPSGEEVLQDIQVMLKSDASPSSIRSLKSDMMSHLVKIPGIIIAASAVRAKATRISIQCRSCRNTLTNIAMRPGLEGYALPRKCNTDQAGRPKCPLDPYFIMPDKCKCVDFQTLKLQELPDAVPHGEMPRHMQLYCDRYLCDKVVPGNRVTIMGIYSIKKFGLTTSRGRDRVGVGIRSSYIRVLGIQVDTDGSGRSFAGAVSPQEEEEFRRLAALPNVYEVISKSIAPSIFGGTDMKKAIACLLFGGSRKRLPDGLTRRGDINLLMLGDPGTAKSQLLKFVEKCSPIGVYTSGKGSSAAGLTASVMRDPSSRNFIMEGGAMVLADGGVVCIDEFDKMREDDRVAIHEAMEQQTISIAKAGITTTLNSRCSVLAAANSVFGRWDETKGEDNIDFMPTILSRFDMIFIVKDEHNEERDVMLAKHVITLHVSALTQTQAVEGEIDLAKLKKFIAYCRVKCGPRLSAEAAEKLKNRYIIMRSGARQHERDSDRRSSIPITVRQLEAIVRIAEALSKMKLQPFATEADVEEALRLFQVSTLDAALSGTLSGVEGFTSQEDQEMLSRIEKQLKRRFAIGSQVSEHSIIKDFTKQKYPEHAIHKVLQLMLRRGEIQHRMQRKVLYRLK
Turning to B2, the binding result in test [2] is “binds”.

B3: Extended synaptotagmin-2 (protein, UniProt A0FGR8 1-921)
chain: MTANRDAALSSHRHPGCAQRPRTPTFASSSQRRSAFGFDDGNFPGLGERSHAPGSRLGARRRAKTARGLRGHRQRGAGAGLSRPGSARAPSPPRPGGPENPGGVLSVELPGLLAQLARSFALLLPVYALGYLGLSFSWVLLALALLAWCRRSRGLKALRLCRALALLEDEERVVRLGVRACDLPAWVHFPDTERAEWLNKTVKHMWPFICQFIEKLFRETIEPAVRGANTHLSTFSFTKVDVGQQPLRINGVKVYTENVDKRQIILDLQISFVGNCEIDLEIKRYFCRAGVKSIQIHGTMRVILEPLIGDMPLVGALSIFFLRKPLLEINWTGLTNLLDVPGLNGLSDTIILDIISNYLVLPNRITVPLVSEVQIAQLRFPVPKGVLRIHFIEAQDLQGKDTYLKGLVKGKSDPYGIIRVGNQIFQSRVIKENLSPKWNEVYEALVYEHPGQELEIELFDEDPDKDDFLGSLMIDLIEVEKERLLDEWFTLDEVPKGKLHLRLEWLTLMPNASNLDKVLTDIKADKDQANDGLSSALLILYLDSARNLPSGKKISSNPNPVVQMSVGHKAQESKIRYKTNEPVWEENFTFFIHNPKRQDLEVEVRDEQHQCSLGNLKVPLSQLLTSEDMTVSQRFQLSNSGPNSTIKMKIALRVLHLEKRERPPDHQHSAQVKRPSVSKEGRKTSIKSHMSGSPGPGGSNTAPSTPVIGGSDKPGMEEKAQPPEAGPQGLHDLGRSSSSLLASPGHISVKEPTPSIASDISLPIATQELRQRLRQLENGTTLGQSPLGQIQLTIRHSSQRNKLIVVVHACRNLIAFSEDGSDPYVRMYLLPDKRRSGRRKTHVSKKTLNPVFDQSFDFSVSLPEVQRRTLDVAVKNSGGFLSKDKGLLGKVLVALASEELAKGWTQWYDLTEDGTRPQAMT
For B3, the binding result in test [3] is “binds”.

B4: DNA replication licensing factor MCM6 (protein, UniProt Q14566 1-821)
chain: MDLAAAAEPGAGSQHLEVRDEVAEKCQKLFLDFLEEFQSSDGEIKYLQLAEELIRPERNTLVVSFVDLEQFNQQLSTTIQEEFYRVYPYLCRALKTFVKDRKEIPLAKDFYVAFQDLPTRHKIRELTSSRIGLLTRISGQVVRTHPVHPELVSGTFLCLDCQTVIRDVEQQFKYTQPNICRNPVCANRRRFLLDTNKSRFVDFQKVRIQETQAELPRGSIPRSLEVILRAEAVESAQAGDKCDFTGTLIVVPDVSKLSTPGARAETNSRVSGVDGYETEGIRGLRALGVRDLSYRLVFLACCVAPTNPRFGGKELRDEEQTAESIKNQMTVKEWEKVFEMSQDKNLYHNLCTSLFPTIHGNDEVKRGVLLMLFGGVPKTTGEGTSLRGDINVCIVGDPSTAKSQFLKHVEEFSPRAVYTSGKASSAAGLTAAVVRDEESHEFVIEAGALMLADNGVCCIDEFDKMDVRDQVAIHEAMEQQTISITKAGVKATLNARTSILAAANPISGHYDRSKSLKQNINLSAPIMSRFDLFFILVDECNEVTDYAIARRIVDLHSRIEESIDRVYSLDDIRRYLLFARQFKPKISKESEDFIVEQYKHLRQRDGSGVTKSSWRITVRQLESMIRLSEAMARMHCCDEVQPKHVKEAFRLLNKSIIRVETPDVNLDQEEEIQMEVDEGAGGINGHADSPAPVNGINGYNEDINQESAPKASLRLGFSEYCRISNLIVLHLRKVEEEEDESALKRSELVNWYLKEIESEIDSEEELINKKRIIEKVIHRLTHYDHVLIELTQAGLKGSTEGSESYEEDPYLVVNPNYLLED
Take B4: the binding result in test [2] was “binds”.

B5: ATP-dependent 6-phosphofructokinase (protein, UniProt P08237 1-780)
chain: MTHEEHHAAKTLGIGKAIAVLTSGGDAQGMNAAVRAVVRVGIFTGARVFFVHEGYQGLVDGGDHIKEATWESVSMMLQLGGTVIGSARCKDFREREGRLRAAYNLVKRGITNLCVIGGDGSLTGADTFRSEWSDLLSDLQKAGKITDEEATKSSYLNIVGLVGSIDNDFCGTDMTIGTDSALHRIMEIVDAITTTAQSHQRTFVLEVMGRHCGYLALVTSLSCGADWVFIPECPPDDDWEEHLCRRLSETRTRGSRLNIIIVAEGAIDKNGKPITSEDIKNLVVKRLGYDTRVTVLGHVQRGGTPSAFDRILGSRMGVEAVMALLEGTPDTPACVVSLSGNQAVRLPLMECVQVTKDVTKAMDEKKFDEALKLRGRSFMNNWEVYKLLAHVRPPVSKSGSHTVAVMNVGAPAAGMNAAVRSTVRIGLIQGNRVLVVHDGFEGLAKGQIEEAGWSYVGGWTGQGGSKLGTKRTLPKKSFEQISANITKFNIQGLVIIGGFEAYTGGLELMEGRKQFDELCIPFVVIPATVSNNVPGSDFSVGADTALNTICTTCDRIKQSAAGTKRRVFIIETMGGYCGYLATMAGLAAGADAAYIFEEPFTIRDLQANVEHLVQKMKTTVKRGLVLRNEKCNENYTTDFIFNLYSEEGKGIFDSRKNVLGHMQQGGSPTPFDRNFATKMGAKAMNWMSGKIKESYRNGRIFANTPDSGCVLGMRKRALVFQPVAELKDQTDFEHRIPKEQWWLKLRPILKILAKYEIDLDTSDHAHLEHITRKRSGEAAV
For B5, the binding result in test [3] is on record as “binds”.

B6: DNA replication licensing factor MCM3 (protein, UniProt P25205 1-808)
chain: MAGTVVLDDVELREAQRDYLDFLDDEEDQGIYQSKVRELISDNQYRLIVNVNDLRRKNEKRANRLLNNAFEELVAFQRALKDFVASIDATYAKQYEEFYVGLEGSFGSKHVSPRTLTSCFLSCVVCVEGIVTKCSLVRPKVVRSVHYCPATKKTIERRYSDLTTLVAFPSSSVYPTKDEENNPLETEYGLSVYKDHQTITIQEMPEKAPAGQLPRSVDVILDDDLVDKAKPGDRVQVVGTYRCLPGKKGGYTSGTFRTVLIACNVKQMSKDAQPSFSAEDIAKIKKFSKTRSKDIFDQLAKSLAPSIHGHDYVKKAILCLLLGGVERDLENGSHIRGDINILLIGDPSVAKSQLLRYVLCTAPRAIPTTGRGSSGVGLTAAVTTDQETGERRLEAGAMVLADRGVVCIDEFDKMSDMDRTAIHEVMEQGRVTIAKAGIHARLNARCSVLAAANPVYGRYDQYKTPMENIGLQDSLLSRFDLLFIMLDQMDPEQDREISDHVLRMHRYRAPGEQDGDAMPLGSAVDILATDDPNFSQEDQQDTQIYEKHDNLLHGTKKKKEKMVSAAFMKKYIHVAKIIKPVLTQESATYIAEEYSRLRSQDSMSSDTARTSPVTARTLETLIRLATAHAKARMSKTVDLQDAEEAVELVQYAYFKKVLEKEKKRKKRSEDESETEDEEEKSQEDQEQKRKRRKTRQPDAKDGDSYDPYDFSDTEEEMPQVHTPKTADSQETKESQKVELSESRLKAFKVALLDVFREAHAQSIGMNRLTESINRDSEEPFSSVEIQAALSKMQDDNQVMVSEGIIFLI
B6: the binding result in test [2] is listed as “binds”.

These data come from PMC13538393.
